Data published in PubChem BioAssay AID540256 (National Center for Advancing Translational Sciences (NCATS), 2011).
Values joined by “and” are separate entries in the source; they are usually repeats but may differ in a detail not shown here. Equal entries are not always repeated. Screen size: about 300,000 compounds; about 3,700 (1.2%) were called active. Inconclusive results, whose numbers are uncertain, are shown with a selection of clear calls. The call rests on the fitted dose curve; tested in HEK293 cells. Potencies beside an inconclusive call are fits to weak or partial responses and may not hold up.

Assay: qHTS for Inhibitors of binding or entry into cells for Lassa Virus; further: nearly all actives have a fitted effect of over 50% in size
Conditions: Lassa virus pseudotype entry inhibition, cell reporter; series mostly up to 37.9 µM
Potency means the concentration at half of the fitted maximal effect.

SMILES	Potency
COc1cc(/C=C2/SC(=S)N(CC3CCCO3)C2=O)ccc1O (stereo not drawn)	inconclusive: 5.62 µM [activator, partial curve, poor fit]
Cc1n[nH]c(=O)c2c(NC(=O)CSc3ncccn3)oc(C)c12	inconclusive: 35.5 µM [inhibitor, single point]
COc1ccc(S(=O)(=O)N2CCN(Cc3cc4c(cc3Br)OCCO4)CC2)cc1	inconclusive: 17.8 µM [inhibitor, single point]
COc1ccc(-c2noc(CN(C(=O)c3c(-c4ccccc4Cl)noc3C)C(C)C)n2)cc1	inconclusive: 3.55 µM [inhibitor, partial curve, poor fit]
CC1CN(C=O)CC(C)N1CCN1C(C)CN(C=O)CC1C (stereo not drawn)	inconclusive: 1.41 µM [activator, partial curve, poor fit]
Clc1cccc(-n2ncc3c(NCCCN4CCOCC4)ncnc32)c1	inconclusive: 4.47 µM [activator, single point]
COC(=O)C1=C(C(=O)OC)[C@@H]2N(C)c3ccc(OC)cc3[C@@]23C[C@@H](C(=O)OC)N(C(=O)NC(C)(C)C)C3=N1	inconclusive: 0.422 µM [inhibitor, full curve]
CC(C)CC1(C(=O)NCCN2CCOCC2)C=CCN1C(=O)c1ccccc1 (stereo not drawn)	inactive
c1ccc(-c2cnc(-c3cccnc3)o2)cc1	inactive
COc1ccc(CCNC(=O)c2ccc(Cn3c(SCC(=O)NCCC(C)C)nc4cc5c(cc4c3=O)OCO5)cc2)cc1OC	inconclusive: 6.31 µM [inhibitor, single point]
O=[N+]([O-])c1ccccc1/C=C/C=N/n1c(-c2ccccc2)n[nH]c1=S	inconclusive: 8.2 µM [inhibitor, partial curve, poor fit]
CCc1ccc(N/C(SCc2ccccc2C)=C(/C#N)C(=O)NCc2ccco2)cc1	active: 8.2 µM
CC1=C(C(=O)Nc2cccnc2)C(c2ccccc2Cl)n2nc(-c3ccccc3)nc2N1 (stereo not drawn)	inactive
Cc1cccc(Nc2nc3c(S(=O)(=O)c4ccc(Br)cc4)nnn3c3ccsc23)c1C	inactive
CCN(CC)CC(=O)Nc1nc(-c2ccc(Cl)cc2)cs1	inactive
Cc1cc(C)c2oc(-c3cccc(NC(=O)COc4ccccc4Cl)c3C)nc2c1	inconclusive: 31.6 µM [activator, single point]
CCOc1ccccc1C(=O)NCc1ccc2c(c1)CCN2C(=O)c1ccccc1	inconclusive: 35.5 µM [inhibitor, single point]
O=C(CCC(=O)Nc1ccc(F)cc1)N/N=C/c1cccc(Br)c1	inconclusive: 3.16 µM [inhibitor, full curve]
Cc1ccc(-c2cc(C(=O)n3cnc4ccccc43)c3ccccc3n2)cc1C	inconclusive: 22.4 µM [inhibitor, single point]
CCc1cccc(N(C(=O)c2csnn2)C(C(=O)NC2CCCC2)c2cccnc2)c1 (stereo not drawn)	inactive
CC1CCN(CCCNC(=O)CN2C(=O)CSc3ccc(S(=O)(=O)N4CCOCC4)cc32)CC1	inconclusive: 11.2 µM [activator, partial curve, poor fit]
NC(=S)NN=CCn1cc([N+](=O)[O-])c(=O)[nH]c1=O	inactive
COc1ccccc1-c1nnc(SCC(=O)Nc2nc(-c3ccccc3)cs2)n1C	active: 23.1 µM

SMILES	Potency
CCCCNCCOCCOc1ccc(C)cc1[N+](=O)[O-]	inconclusive: 0.116 µM [inhibitor, partial curve, poor fit]
CCN(CC)S(=O)(=O)c1ccc(Cl)c(NC(=O)COc2ccc(OC)cc2)c1	inconclusive: 0.631 µM [inhibitor, partial curve, poor fit]
O=C(NCC1CCCO1)C(c1cccs1)N(C(=O)c1ccc(-c2ccccc2)[nH]1)C1CCCC1 (stereo not drawn)	inconclusive: 32.6 µM [inhibitor, partial curve, poor fit]
Cc1ccc(S(=O)(=O)N(Cc2n[nH]c(=S)n2-c2ccccc2)c2ccccc2)cc1	inconclusive: 6.31 µM [inhibitor, partial curve, poor fit]
Cc1cc(C)c(S(=O)(=O)N(C2=NCCS2)S(=O)(=O)c2c(C)cc(C)cc2C)c(C)c1	inconclusive: 12.6 µM [inhibitor, single point]
COc1cccc(/C=C2\SC(=S)N(CC3CCCO3)C2=O)c1 (stereo not drawn)	inconclusive: 25.9 µM [activator, partial curve, poor fit]
O=C(Nc1ccccc1SCC1CSc2nc3ccccc3c(=O)n21)c1ccccc1Cl (stereo not drawn)	inconclusive: 35.5 µM [inhibitor, single point]
O=C(CSc1ncnc2c1nnn2Cc1ccccc1F)N1CCN(c2ccccc2)CC1	inconclusive: 7.08 µM [inhibitor, partial curve, poor fit]
Cc1cccc(NC(=S)N(CCCN2CCCC2)Cc2cccn2Cc2ccc(Cl)cc2)c1	inconclusive: 11.2 µM [inhibitor, partial curve, poor fit]
COc1cc(/C=N/N2C(=O)CSC2=S)cc(Br)c1O	active: 15.8 µM
CCCOc1ccc(C(=O)N(CC(C)C)c2c(N)n(Cc3ccccc3)c(=O)[nH]c2=O)cc1	inconclusive: 10 µM [inhibitor, partial curve, poor fit]
Cc1ccc(C)c(NS(=O)(=O)c2ccc3oc(=O)c4ncn(C)c4c3c2)c1	inactive
CC(NC(=O)CSc1nc(-c2ccccc2F)nc2cc(=O)[nH]n12)c1nc2ccccc2n1C (stereo not drawn)	inactive
COc1ccc(-c2cc(C(=O)N/N=C/c3sccc3C)c3ccccc3n2)c(OC)c1	active: 3.16 µM
CCCS(=O)(=O)NCCc1csc(-c2ccc(OC)c(OC)c2)n1	inconclusive: 35.5 µM [inhibitor, single point]
Cc1ccc(CNC(=O)Cn2ccn(-c3ccc(F)cc3)c(=O)c2=O)cc1	inactive
Cc1ccc(NC(=O)CC2S/C(=N/N=C3/NC(=O)CS3)NC2=O)cc1 (stereo not drawn)	inconclusive: 1 µM [inhibitor, full curve, poor fit]
Cc1ccc(NC(=O)c2c(C)oc3ncn(CC(C)C)c(=O)c23)nc1	inactive
N#CCN1CCN(CC(=O)Nc2ccc(OCc3ccccc3)cc2)CC1	inactive
O=C(Nc1ccc2c(c1)OCO2)c1cncc(Br)c1	inactive
CCN(CC)c1ccc2c(Cl)cc(=O)oc2c1	inconclusive: 35.5 µM [inhibitor, single point]
COc1ccc(NS(=O)(=O)c2ccc(C)c(NC(=O)NC3CCCCC3)c2)cc1	active: 10 µM
CCc1cc2c(=O)c(-c3nc4ccccc4n3C)coc2c(CN2CCC(C)CC2)c1O	inconclusive: 0.631 µM [inhibitor, full curve]

SMILES	Potency
Cc1cc2oc(=O)cc(C)c2cc1NC(=O)CCl	inconclusive: 7.08 µM [inhibitor, full curve, poor fit]
O=C(Nc1nccs1)c1ccc(-c2ccccc2Cl)o1	inconclusive: 0.058 µM [activator, full curve, poor fit]
CCOC(=O)Cc1ccc2sc(-c3ccccc3)nc2c1	inconclusive: 0.708 µM [activator, partial curve, poor fit]
COc1ccc(-n2ncc3c(=O)n(CC(=O)N4c5ccccc5CC4C)cnc32)cc1 (stereo not drawn)	inconclusive: 23.1 µM [inhibitor, partial curve, poor fit]
C/C(=N\S(=O)(=O)c1ccc(C)cc1)Nc1cc(C(C)C)c(O)cc1C	inconclusive: 35.5 µM [inhibitor, single point]
CCCCn1nnc(NC(=O)c2ccc(-c3ccccc3)cc2)n1	inactive
CCOC(=O)c1c(C)nc2sc(C(N)=O)c(N)c2c1-c1ccc(OC)cc1	inactive
Cc1cccc(OCC(=O)O/N=C(\N)c2ccccn2)c1C	inconclusive: 35.5 µM [inhibitor, single point]
CCOC(=O)CN(C)Cc1cn[nH]c1-c1ccc2cc(OC)ccc2c1	inconclusive: 3.98 µM [inhibitor, partial curve, poor fit]
COc1ccc2oc(C(=O)Nc3nnc(C)s3)c(C)c2c1	active: 7.08 µM
O=C(/C=C/c1cccc([N+](=O)[O-])c1)N1CC[C@@]2(O)CCCC[C@H]2C1	inconclusive: 5.62 µM [inhibitor, single point]
CCOC(=O)c1ccc(-c2ccc(C3Nc4ccccc4C(=O)N3O)o2)cc1 (stereo not drawn)	inconclusive: 35.5 µM [inhibitor, single point]
Cc1ccc2oc(C(Cl)(Cl)Cl)cc(=O)c2c1	inactive
O=C(CSc1nnc(CN2CCOCC2)n1-c1ccc(Cl)cc1)N1CCc2ccccc21	inactive
COc1cc(NC(=O)c2ccc3c(c2)OCO3)ccc1NC(=O)c1ccco1	inactive
CCNc1cc2c(cc1O)CCC1C2CCC2(C)C(O)CCC12 (stereo not drawn)	inconclusive: 5.62 µM [inhibitor, full curve]
Cc1cc([N+](=O)[O-])ccc1NC(=O)Nc1ccccc1F	inactive
COc1ccccc1NS(=O)(=O)c1cc(NC(=O)c2ccco2)ccc1N1CCOCC1	inactive
O=C(Oc1ccc(-c2cnc3ccccc3n2)cc1)c1ccc(Cl)c([N+](=O)[O-])c1	inactive
CNC(=S)N(CCc1c(C)[nH]c2ccccc12)Cc1cc(OC)c(OC)c(OC)c1	inconclusive: 13 µM [inhibitor, partial curve, poor fit]
COc1ccc(OC)c(S(=O)(=O)N2CCN(Cc3nc4ccc(C)cc4o3)CC2)c1	inactive
CN1CCN(Cc2nc3ccccc3c(=O)n2Cc2nc(-c3ccc4ccccc4c3)cs2)CC1	inconclusive: 35.5 µM [inhibitor, single point] and inconclusive: 20 µM [inhibitor, single point]

A draw from above in order of molar mass, ascending.
SMILES	Potency
Cc1ccc2oc(C(Cl)(Cl)Cl)cc(=O)c2c1	inactive
CCCCn1nnc(NC(=O)c2ccc(-c3ccccc3)cc2)n1	inactive
CCOC(=O)CN(C)Cc1cn[nH]c1-c1ccc2cc(OC)ccc2c1	inconclusive: 3.98 µM [inhibitor, partial curve, poor fit]
C/C(=N\S(=O)(=O)c1ccc(C)cc1)Nc1cc(C(C)C)c(O)cc1C	inconclusive: 35.5 µM [inhibitor, single point]
CNC(=S)N(CCc1c(C)[nH]c2ccccc12)Cc1cc(OC)c(OC)c(OC)c1	inconclusive: 13 µM [inhibitor, partial curve, poor fit]
